Results as given in PubChem BioAssay AID540303 (National Center for Advancing Translational Sciences (NCATS), 2011).
Hit rate of the full screen: of about 330,000 compounds, about 1,000 (0.3%) were called active. The inconclusive results got no clear call from the source; some entries with a clear call stand among them for comparison. The call rests on the fitted dose curve; in most records, active means well fitted inhibition curve with a large enough effect; inconclusive means small, poorly fitted or top-dose-only effect; inactive means no such curve, though single readings can be large or run the other way; tested in mouse RAW 264.7 cells. Potencies beside an inconclusive call are fits to weak or partial responses and may not hold up.

test: qHTS for Inhibitors of Cell Surface uPA Generation; settings: cell surface uPA generation assay; series mostly up to 38.3 µM; further: nearly all actives have a fitted effect of over 55% in size
Outline: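 RAW 264.7 cells (4000/well) were plated overnight at 37 C and then given compounds in a 1:5 series (up to 38.3 uM final) plus reagent for 24 h. Intracellular ATP was measured by ATP-Lite luminescence and stays elevated when uPA-dependent LF entry is blocked.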
Potency means the concentration at half of the fitted maximal effect.

| Compound | Potency |
| --- | --- |
| COc1cc(OC)c2c(-c3ccccc3)cc(=O)oc2c1C(CCN1CCCC(C)C1)c1ccc2c(c1)OCO2 (centres undefined) | inconclusive: 28.2 µM [inhibitor, single point] |
| O=C(N/N=C/C=C/c1ccccc1[N+](=O)[O-])c1ccncc1 | inactive |
| CCC1(c2ccc(F)cc2)NC(=O)N(CC(=O)N2CCN(S(=O)(=O)c3ccc(C)cc3C)CC2)C1=O (centres undefined) | inconclusive: 7.08 µM [inhibitor, partial curve, poor fit] |
| O=Nc1c(-c2ccccc2)cc2ccccn12 | inconclusive: 4.47 µM [inhibitor, full curve, poor fit] |
| CC(Sc1nnc(-c2ccco2)n1N)C(=O)NC1CCCCC1C (centres undefined) | inconclusive: 4.47 µM [inhibitor, partial curve, poor fit] |
| COc1ccc(-c2csc(/C(C#N)=C\c3ccc(O)c([N+](=O)[O-])c3)n2)cc1OC | inactive |
| CCCc1cc(C(=O)N2CCCC(C(=O)c3cc(C)c(OC)c(C)c3)C2)n(C)n1 (centres undefined) | inactive |
| Cc1nn(-c2ccccc2)c(C)c1/C=N/NC(=O)CSc1nnc(-c2ccccc2)n1-c1ccc(Cl)cc1 | inactive |
| CCOc1ccc(S(=O)(=O)N2CCC(C(=O)OC(C)C(=O)N(C)C3CCCCC3)CC2)cc1 (centres undefined) | inactive |
| Cc1cnc(N)c2c(=O)oc3ccccc3c12 | inconclusive: 2.82 µM [inhibitor, partial curve, poor fit] |
| COC(=O)Cc1cc(=O)[nH]c(/N=C(\N)Nc2ccc(C(C)C)cc2)n1 | inactive |
| COc1cc(Nc2ccccc2Cl)c([N+](=O)[O-])nc1[N+](=O)[O-] | inconclusive: 8.91 µM [inhibitor, single point] |
| CCCCN(C(=O)c1cccc(S(=O)(=O)N(C)c2ccc(C)cc2)c1)c1c(N)n(CC(C)C)c(=O)[nH]c1=O | inconclusive: 0.562 µM [inhibitor, partial curve, poor fit] |
| O=c1c2ccccc2oc2ccc(-c3ccc4cc[nH]c4c3)cc12 | inconclusive: 10 µM [inhibitor, single point] |
| CCNc1nc(OC)nc(SCC(=O)Nc2ccccc2)n1 | inconclusive: 12.6 µM [inhibitor, single point] |
| CC(C)(C)OC(=O)N1CCCC(C(=O)Nc2ccc(C(=O)NCCc3ccccc3)cc2)C1 (centres undefined) | inactive |
| Cc1cc(C(=O)N/N=C/c2ccc([N+](=O)[O-])o2)c(C)o1 | active: 10 µM |
| O=C(NNC(=O)c1ccc(Cl)cc1Cl)c1csc(-c2cccnc2)n1 | inconclusive: 11.2 µM [inhibitor, partial curve, poor fit] |
| O=C(NCc1ccccc1)c1nc(S(=O)(=O)Cc2ccccc2)ncc1Cl | inconclusive: 1 µM [inhibitor, partial curve, poor fit] |
| O=C(Nc1ccccc1)C1=C[C@H](C2CCCCC2)C[C@H](OCc2ccc(CO)cc2)O1 | inactive |
| Cc1ccc(Nc2nc(-c3ccccc3)cs2)nc1 | active: 10 µM |
| COc1cc(C(=O)NCCNC(=O)c2ccco2)cc(OC)c1OC | inactive |

An excerpt of these results, bar-delimited:
Compound | Potency
COC(=O)Cc1cc(=O)[nH]c(/N=C(\N)Nc2ccc(C(C)C)cc2)n1 | inactive
COc1cc(Nc2ccccc2Cl)c([N+](=O)[O-])nc1[N+](=O)[O-] | inconclusive: 8.91 µM [inhibitor, single point]
CCCCN(C(=O)c1cccc(S(=O)(=O)N(C)c2ccc(C)cc2)c1)c1c(N)n(CC(C)C)c(=O)[nH]c1=O | inconclusive: 0.562 µM [inhibitor, partial curve, poor fit]

Continuation.

| Compound | Potency |
| --- | --- |
| COc1ccc(N2C(=O)C(Cl)=C(Oc3cccc(OC)c3)C2=O)cc1 | inactive |
| O=C(Nc1ncccc1Cl)c1cc2ccccc2o1 | inconclusive: 12.6 µM [inhibitor, single point] |
| COc1cccc(/C=N/NC(=O)C(=O)NCc2ccco2)c1O | inconclusive: 3.55 µM [inhibitor, partial curve, poor fit] |
| NC(=O)c1sc2nc(-c3cccs3)ccc2c1N | inconclusive: 8.91 µM [inhibitor, partial curve, poor fit] |
| CCOc1ccc(CNC(=O)C2CCN(C(=O)N3CC(C)Oc4ccccc43)CC2)cc1 (centres undefined) | inactive |
| CCC(C)(C)c1ccc(OCCCC[n+]2ccccc2)c(C(C)(C)CC)c1 | active: 11.2 µM |
| N#CCC(CNc1ncc(C(F)(F)F)cc1Cl)OC(=O)c1cccc([N+](=O)[O-])c1 (centres undefined) | inconclusive: 11.2 µM [inhibitor, partial curve, poor fit] |
| CC(C)Oc1ccc(CN2CCCC(CO)(Cc3ccc(F)cc3)C2)cc1 (centres undefined) | inactive |
| COc1cc(C(=O)Nc2c(C(=O)O)[nH]c3ccc(C)cc23)cc(OC)c1OC | inconclusive: 2.51 µM [inhibitor, full curve, poor fit] |
| CCc1nnc(NS(=O)(=O)c2ccc(NCc3ccccc3O)cc2)s1 | inactive |
| COc1ccc(C2CC(c3ccc(C(F)(F)F)cc3)=NN2c2ccc(S(N)(=O)=O)cc2)cc1 (centres undefined) | inconclusive: 22.4 µM [inhibitor, single point] |
| CCn1c(CC(=O)Nc2ccc(C)c(Cl)c2)nnc1SCC(=O)Nc1nc(C)cs1 | inactive |
| O=c1[nH]c(COc2ccccc2)nc2ccccc12 | inconclusive: 8.91 µM [inhibitor, single point] |
| Cc1ccccc1N(CC(=O)N/N=C/c1ccccc1Cl)C(=O)c1ccccc1 | inactive |
| O=C1CCCN1CCC1CCN(C2CC(=O)N(c3ccc(Cl)cc3)C2=O)CC1 (centres undefined) | inconclusive: 0.1 µM [inhibitor, full curve, poor fit] |
| Cc1cccc(N2CCN(C(=O)C3CCN(S(=O)(=O)c4c(C)noc4C)CC3)CC2)c1C | inconclusive: 11.2 µM [inhibitor, single point] |
| CCCC(=O)N1CCc2cc(OC)c(OC)cc2C1c1cc2cc3c(cc2[nH]c1=O)OCO3 (centres undefined) | inactive |
| Cc1csc2ncnc(N3CCN(S(=O)(=O)c4cccc(C(F)(F)F)c4)CC3)c12 | inconclusive: 10 µM [inhibitor, partial curve] |
| CC(C)(C)OC(=O)NCc1ccc(CNC(=O)c2[nH]cnc2C(=O)NC2CCN(C(=O)OC(C)(C)C)CC2)cc1 | inconclusive: 28.2 µM [inhibitor, single point] |
| N#CNC(=Nc1cccc(F)c1)SCc1ccccc1F | active: 12.6 µM |
| c1cc(-c2cc3cc4c(cc3cn2)OCO4)cs1 | inconclusive: 10 µM [inhibitor, partial curve, poor fit] |
| Cc1[nH]n(-c2ccccc2)c(=O)c1/C=N/Nc1nncc(-c2ccccc2)n1 | inconclusive: 1.41 µM [inhibitor, full curve] |
